PubChem BioAssay AID1259405 – NCATS – 2018

- Test: 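Knock-downs that lift recombinant protein yield in hamster ovary cells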 (primary screen)
- Cell system: Chinese hamster CHO-K1 ovary cells with stable secreted eGFP expression
- Knock-down reagent: single siRNA against mouse genes, 0.8 pmol siRNA per well (2 µl of 400 nM stock)
- Duration: 3 days
- Measured: 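Per-well intracellular GFP measured by laser scanning cytometry, plus viability from ATP luminescence, each relative to plate median of non-targeting control wells, in %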
- Direction: GFP, % of control: higher = more GFP per well, higher productivity; viability (ATP), % of control: higher = more viable cells (more ATP)
- Active means: 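a knock-down is called active if GFP reaches 120% or more of non-targeting control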
The deposit covers about 50,000 reagents; below is an unselected part. About 4,000 of all reagents (8%) count as active. 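Mouse siRNA library applied to hamster cells; one well for each siRNA.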 The numbers tell different reagents against one gene apart.

Lax1 #1
- GFP, % of control: 88.2
- viability (ATP), % of control: 105
- Outcome: inactive

Lax1 #2
- GFP, % of control: 49
- viability (ATP), % of control: 65.6
- Outcome: inactive

Lax1 #3
- GFP, % of control: 80
- viability (ATP), % of control: 53.4
- Outcome: inactive

Lamp2 #1
- GFP, % of control: 64.5
- viability (ATP), % of control: 82.5
- Outcome: inactive

Lamp2 #2
- GFP, % of control: 65.1
- viability (ATP), % of control: 65.8
- Outcome: inactive

Lamp2 #3
- GFP, % of control: 132
- viability (ATP), % of control: 98.5
- Outcome: active

Usp17ld #1
- GFP, % of control: 118
- viability (ATP), % of control: 121
- Outcome: inactive

Usp17ld #2
- GFP, % of control: 78.5
- viability (ATP), % of control: 44.4
- Outcome: inactive

Usp17ld #3
- GFP, % of control: 103
- viability (ATP), % of control: 81.4
- Outcome: inactive

Lats2
- GFP, % of control: 76.3
- viability (ATP), % of control: 64.2
- Outcome: inactive

Hykk #1
- GFP, % of control: 84.9
- viability (ATP), % of control: 80.4
- Outcome: inactive

Hykk #2
- GFP, % of control: 84.8
- viability (ATP), % of control: 62.5
- Outcome: inactive

Hykk #3
- GFP, % of control: 94.6
- viability (ATP), % of control: 121
- Outcome: inactive

Klri1 #1
- GFP, % of control: 77.8
- viability (ATP), % of control: 69.3
- Outcome: inactive

Klri1 #2
- GFP, % of control: 110
- viability (ATP), % of control: 50.3
- Outcome: inactive

Klri1 #3
- GFP, % of control: 94.8
- viability (ATP), % of control: 80.8
- Outcome: inactive

A stretch of the results above, as a working copy:
Lamp2 #2
- GFP, % of control: 65.1
- viability (ATP), % of control: 65.8
- Outcome: inactive

Lamp2 #3
- GFP, % of control: 132
- viability (ATP), % of control: 98.5
- Outcome: active
